PubChem BioAssay AID1259304 | Sanger Institute | 2017
This is one part, drawn at random, of 160 reagents tested. 88 of all reagents (55%) count as active. 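Four siRNAs per gene, each called on its own in one cell line; calls are not confirmed gene-level hits.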 A number with no mark means an inactive call. Viability is capped at 1. No sequences are given here. Not given: the amount of reagent, the time to read-out.

Purpose: 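Kinase partners that kill colorectal cancer cells together with three anchor drugs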 (secondary deconvolution rescreen of primary hits)
System: HT115 human colorectal cancer cells
Knock-down reagent: single siRNA against human genes
Conditions: anchor drugs BYL719 at 1 µM, cetuximab at 5 µg/ml or trametinib at 10 nM, each set against DMSO vehicle
Measurement: 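Replicate-averaged viability as a fraction of non-targeting control, with a drug-siRNA synergy score from joint versus separate effects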
Direction: synergy score with BYL719: higher = stronger synthetic lethal interaction with BYL719; synergy score with cetuximab: higher = stronger synthetic lethal interaction with cetuximab; synergy score with trametinib: higher = stronger synthetic lethal interaction with trametinib; viability, siRNA with trametinib and viability, siRNA with DMSO vehicle: higher = more cells surviving
Rule for the call: 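Called active when the synergy score is above 0.10 for any of BYL719, cetuximab or trametinib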
Meaning of the calls: active = synergy with at least one anchor drug; inactive = no synergy with any anchor drug

gene knocked down,PubChem SID,synergy score with BYL719,synergy score with cetuximab,synergy score with trametinib,"viability, siRNA with trametinib (fraction of control)","viability, siRNA with DMSO vehicle (fraction of control)"
ACVR1 (activin A receptor type 1),SID56476923,-0.0314,-0.136,-0.0254,1,1
ACVR1 (activin A receptor type 1),SID56476924,0.0279 (active),0.0113,0.11,0.795,0.929
ACVR1 (activin A receptor type 1),SID56476925,-0.119 (active),0.209,0.331,0.621,0.978
ACVR1 (activin A receptor type 1),SID152154144,-0.136,-0.0987,0.0639,0.76,0.845
MARK3 (microtubule affinity regulating kinase 3),SID56475931,0.054,-0.0523,0.0992,0.875,1
MARK3 (microtubule affinity regulating kinase 3),SID56475932,-0.0614,-0.0244,0.0808,0.864,0.969
MARK3 (microtubule affinity regulating kinase 3),SID56475933,-0.13,-0.0498,0.0111,0.658,0.686
MARK3 (microtubule affinity regulating kinase 3),SID56475934,-0.102 (active),-0.00879,0.26,0.715,1
GTF2H1 (general transcription factor IIH subunit 1),SID56478227,-0.136,-0.059,-0.0268,0.671,0.661
GTF2H1 (general transcription factor IIH subunit 1),SID56478228,0.0188,0.085,-0.0254,1,1
GTF2H1 (general transcription factor IIH subunit 1),SID56478229,-0.206,-0.13,-0.0779,0.947,0.892
GTF2H1 (general transcription factor IIH subunit 1),SID56478230,0.12 (active),0.177,0.202,0.539,0.76
PINK1 (PTEN induced kinase 1),SID56476283,-0.122,-0.0375,0.0505,0.826,0.899
PINK1 (PTEN induced kinase 1),SID56476284,0.151 (active),0.147,0.416,0.437,0.875
PINK1 (PTEN induced kinase 1),SID56476285,0.0515 (active),0.235,0.279,0.566,0.867
PINK1 (PTEN induced kinase 1),SID56476286,-0.0437 (active),-0.0163,0.19,0.689,0.902
NLK (nemo like kinase),SID56476715,-0.108,0.0299,-0.0187,0.864,0.867
NLK (nemo like kinase),SID56476716,-0.078 (active),0.031,0.184,0.51,0.713
NLK (nemo like kinase),SID56476717,-0.133,-0.0484,0.034,0.78,0.835
NLK (nemo like kinase),SID56476718,-0.0232,-0.0185,0.0319,0.927,0.984
PLK1 (polo like kinase 1),SID56475783,-0.0777,-0.0353,-0.0052,0.14,0.139
PLK1 (polo like kinase 1),SID56475784,0.011,0.00236,0.0258,0.132,0.162
PLK1 (polo like kinase 1),SID56475785,-0.0325,0.000146,-0.0149,0.139,0.127
PLK1 (polo like kinase 1),SID56475786,-0.0421,-0.0146,-0.00722,0.0919,0.0868
IKBKB (inhibitor of nuclear factor kappa B kinase subunit beta),SID56475899,-0.124,0.011,0.0441,0.381,0.437
IKBKB (inhibitor of nuclear factor kappa B kinase subunit beta),SID56475900,0.0191 (active),0.0718,0.124,0.701,0.847
IKBKB (inhibitor of nuclear factor kappa B kinase subunit beta),SID56475901,-0.00469,-0.136,0.0306,0.944,1
IKBKB (inhibitor of nuclear factor kappa B kinase subunit beta),SID56475902,0.0255,-0.0176,0.0252,0.613,0.654
STK36 (serine/threonine kinase 36),SID56477127,0.0563 (active),0.056,0.264,0.547,0.832
STK36 (serine/threonine kinase 36),SID56477128,-0.00653 (active),0.0354,0.25,0.698,0.973
STK36 (serine/threonine kinase 36),SID56477129,0.0221 (active),0.0548,0.165,0.509,0.691
STK36 (serine/threonine kinase 36),SID135611686,0.0266,-0.0711,0.0783,0.589,0.685
CSNK2A2 (casein kinase 2 alpha 2),SID56476699,-0.0113,-0.0205,0.0992,0.875,1
CSNK2A2 (casein kinase 2 alpha 2),SID56476700,0.0149 (active),0.0318,0.172,0.221,0.403
CSNK2A2 (casein kinase 2 alpha 2),SID56476701,-0.0986,-0.0987,-0.0492,0.653,0.619
CSNK2A2 (casein kinase 2 alpha 2),SID56476702,0.0338 (active),0.105,0.24,0.172,0.423

Targets above whose target name begins with A or a (4):
gene knocked down,PubChem SID,synergy score with BYL719,synergy score with cetuximab,synergy score with trametinib,"viability, siRNA with trametinib (fraction of control)","viability, siRNA with DMSO vehicle (fraction of control)"
ACVR1 (activin A receptor type 1),SID56476923,-0.0314,-0.136,-0.0254,1,1
ACVR1 (activin A receptor type 1),SID56476924,0.0279 (active),0.0113,0.11,0.795,0.929
ACVR1 (activin A receptor type 1),SID56476925,-0.119 (active),0.209,0.331,0.621,0.978
ACVR1 (activin A receptor type 1),SID152154144,-0.136,-0.0987,0.0639,0.76,0.845
